In publication doi:10.1101/2021.04.23.441173 one finds binding data, which are given here for 2 substances.

Protein sequences, listed by entry. Tags and fused reporters are not part of them.
UniProt Q9VF03: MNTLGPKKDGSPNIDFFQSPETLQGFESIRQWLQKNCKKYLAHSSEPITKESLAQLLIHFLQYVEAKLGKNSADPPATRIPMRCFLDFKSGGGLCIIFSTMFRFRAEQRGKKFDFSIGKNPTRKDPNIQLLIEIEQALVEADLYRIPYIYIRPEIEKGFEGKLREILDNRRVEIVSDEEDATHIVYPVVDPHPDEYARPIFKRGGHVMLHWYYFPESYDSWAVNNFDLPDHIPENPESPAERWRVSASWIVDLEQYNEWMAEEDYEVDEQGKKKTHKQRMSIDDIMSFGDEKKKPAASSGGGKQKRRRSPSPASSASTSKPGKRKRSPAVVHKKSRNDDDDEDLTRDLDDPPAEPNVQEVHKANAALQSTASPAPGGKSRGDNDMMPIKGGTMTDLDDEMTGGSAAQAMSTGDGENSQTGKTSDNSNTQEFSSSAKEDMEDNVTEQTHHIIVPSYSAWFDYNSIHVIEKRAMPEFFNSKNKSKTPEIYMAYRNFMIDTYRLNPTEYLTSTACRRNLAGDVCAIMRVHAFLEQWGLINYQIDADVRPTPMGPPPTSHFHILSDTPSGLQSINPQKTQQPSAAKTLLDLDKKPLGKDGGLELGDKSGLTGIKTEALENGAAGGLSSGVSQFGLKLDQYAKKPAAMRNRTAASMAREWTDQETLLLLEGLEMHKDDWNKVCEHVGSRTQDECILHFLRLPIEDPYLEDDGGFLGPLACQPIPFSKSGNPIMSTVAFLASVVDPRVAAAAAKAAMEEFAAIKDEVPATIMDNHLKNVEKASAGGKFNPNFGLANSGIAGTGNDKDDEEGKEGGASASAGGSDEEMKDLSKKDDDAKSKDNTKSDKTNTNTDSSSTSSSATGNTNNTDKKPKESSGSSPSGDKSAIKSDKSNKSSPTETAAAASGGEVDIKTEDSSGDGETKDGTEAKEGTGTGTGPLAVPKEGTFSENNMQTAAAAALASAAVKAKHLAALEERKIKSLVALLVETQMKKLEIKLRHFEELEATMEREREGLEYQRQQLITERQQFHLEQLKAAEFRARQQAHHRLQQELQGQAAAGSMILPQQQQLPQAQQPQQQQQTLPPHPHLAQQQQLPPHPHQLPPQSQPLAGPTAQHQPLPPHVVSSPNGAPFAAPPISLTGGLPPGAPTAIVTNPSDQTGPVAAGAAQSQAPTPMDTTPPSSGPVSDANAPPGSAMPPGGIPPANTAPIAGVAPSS
UniProt Q24090: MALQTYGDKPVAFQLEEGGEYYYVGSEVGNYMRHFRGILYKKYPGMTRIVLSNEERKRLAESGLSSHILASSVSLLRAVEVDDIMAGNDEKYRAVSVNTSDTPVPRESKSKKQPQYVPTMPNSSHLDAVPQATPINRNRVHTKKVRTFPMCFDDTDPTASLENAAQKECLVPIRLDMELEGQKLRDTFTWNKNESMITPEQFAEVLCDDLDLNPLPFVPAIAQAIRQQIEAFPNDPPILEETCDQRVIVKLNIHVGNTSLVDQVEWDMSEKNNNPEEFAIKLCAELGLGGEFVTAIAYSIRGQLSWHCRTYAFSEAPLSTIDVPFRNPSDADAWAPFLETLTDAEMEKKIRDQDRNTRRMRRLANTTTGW
UniProt P25439: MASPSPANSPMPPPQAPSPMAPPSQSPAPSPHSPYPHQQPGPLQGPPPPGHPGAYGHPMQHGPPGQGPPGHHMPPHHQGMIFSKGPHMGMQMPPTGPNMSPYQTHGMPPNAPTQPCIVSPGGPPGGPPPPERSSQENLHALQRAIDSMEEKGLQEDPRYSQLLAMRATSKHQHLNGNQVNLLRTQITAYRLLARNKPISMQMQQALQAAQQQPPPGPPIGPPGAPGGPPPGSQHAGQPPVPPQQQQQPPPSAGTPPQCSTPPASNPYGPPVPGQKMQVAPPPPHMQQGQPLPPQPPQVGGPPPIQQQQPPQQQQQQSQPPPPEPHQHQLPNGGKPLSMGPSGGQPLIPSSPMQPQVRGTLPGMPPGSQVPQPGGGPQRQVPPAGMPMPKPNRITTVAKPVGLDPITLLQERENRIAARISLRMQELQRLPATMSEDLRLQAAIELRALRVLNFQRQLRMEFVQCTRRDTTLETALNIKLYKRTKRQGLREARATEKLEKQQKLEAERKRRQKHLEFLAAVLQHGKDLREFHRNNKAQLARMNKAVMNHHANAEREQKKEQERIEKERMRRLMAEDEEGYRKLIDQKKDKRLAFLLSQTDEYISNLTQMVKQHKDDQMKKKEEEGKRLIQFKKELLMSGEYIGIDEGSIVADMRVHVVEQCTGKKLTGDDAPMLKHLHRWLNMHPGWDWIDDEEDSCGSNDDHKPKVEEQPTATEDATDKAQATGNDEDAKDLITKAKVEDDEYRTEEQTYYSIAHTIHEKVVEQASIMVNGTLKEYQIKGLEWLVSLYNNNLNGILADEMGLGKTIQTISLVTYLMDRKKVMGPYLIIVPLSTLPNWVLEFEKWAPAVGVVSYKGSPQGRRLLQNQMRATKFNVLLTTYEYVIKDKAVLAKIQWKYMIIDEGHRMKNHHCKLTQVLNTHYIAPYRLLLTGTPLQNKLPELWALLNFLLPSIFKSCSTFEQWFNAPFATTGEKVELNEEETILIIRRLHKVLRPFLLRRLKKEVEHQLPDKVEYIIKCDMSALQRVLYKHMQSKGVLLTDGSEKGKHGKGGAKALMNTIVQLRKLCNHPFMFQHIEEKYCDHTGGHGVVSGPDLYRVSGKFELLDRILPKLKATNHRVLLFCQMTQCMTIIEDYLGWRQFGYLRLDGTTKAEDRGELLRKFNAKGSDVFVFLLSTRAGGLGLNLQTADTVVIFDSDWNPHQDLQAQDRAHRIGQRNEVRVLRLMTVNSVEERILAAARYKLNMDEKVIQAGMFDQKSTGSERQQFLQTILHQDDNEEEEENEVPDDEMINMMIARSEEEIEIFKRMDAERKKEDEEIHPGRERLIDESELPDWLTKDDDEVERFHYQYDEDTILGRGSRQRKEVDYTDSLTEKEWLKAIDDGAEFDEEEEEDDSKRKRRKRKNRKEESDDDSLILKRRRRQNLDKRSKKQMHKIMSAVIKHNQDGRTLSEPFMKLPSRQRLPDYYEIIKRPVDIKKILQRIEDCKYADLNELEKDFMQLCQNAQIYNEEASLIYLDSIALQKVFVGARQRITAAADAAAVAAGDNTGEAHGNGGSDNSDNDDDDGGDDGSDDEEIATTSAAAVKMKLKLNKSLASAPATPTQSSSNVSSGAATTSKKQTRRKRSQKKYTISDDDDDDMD

This assay addresses MOR (SMARCC1/2), endogenous (Drosophila (endogenous in larval salivary glands)) (UniProt Q9VF03). Kind of assay: co-IP.

These are yes or no findings as the source states them, for the method shown. Binding seen in cells or lysates may run through a third protein. Some entries that bind do so weakly or less than the wild type.

As to “GFP-SNR1 expressed in larval salivary glands of transgenic Drosophila (from UniProt Q24090 1-370)”, the binding entry is “binds”.
On to “GFP-BRM expressed in 3rd instar larval salivary glands of transgenic Drosophila (from UniProt P25439 1-1638)”, for which the binding result was “binds”.
